Experimental data: PubChem BioAssay (Tox21)
This list was built around the results that the source calls inconclusive (neither active nor inactive); the mix of calls is not that of the screen. For part of these data: A potency beside an inconclusive call is a rough fit, not a confirmed value. A structure can be active in one record and inactive in another. Active and inactive are the calls of the source. Unless noted, the call rests on the fitted dose curve.

By UniProt entry, the sequences of proteins in these tests, tags left out. Where a name states a change or a piece, a line headed by the entry shows the natural chain unless it says otherwise.
UniProt P28223, whole entry, looked up: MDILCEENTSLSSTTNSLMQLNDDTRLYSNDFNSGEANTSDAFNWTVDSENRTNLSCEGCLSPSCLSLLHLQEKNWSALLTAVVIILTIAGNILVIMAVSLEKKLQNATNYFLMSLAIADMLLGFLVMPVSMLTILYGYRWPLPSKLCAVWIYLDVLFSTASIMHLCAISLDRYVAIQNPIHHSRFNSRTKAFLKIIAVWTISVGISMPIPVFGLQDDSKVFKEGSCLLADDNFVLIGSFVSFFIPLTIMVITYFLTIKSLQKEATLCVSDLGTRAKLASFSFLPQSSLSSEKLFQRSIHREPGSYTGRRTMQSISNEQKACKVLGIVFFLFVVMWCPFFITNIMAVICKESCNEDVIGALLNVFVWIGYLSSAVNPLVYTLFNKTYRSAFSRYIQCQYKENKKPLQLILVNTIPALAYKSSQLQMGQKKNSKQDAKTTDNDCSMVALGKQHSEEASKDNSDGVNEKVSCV
UniProt P11229: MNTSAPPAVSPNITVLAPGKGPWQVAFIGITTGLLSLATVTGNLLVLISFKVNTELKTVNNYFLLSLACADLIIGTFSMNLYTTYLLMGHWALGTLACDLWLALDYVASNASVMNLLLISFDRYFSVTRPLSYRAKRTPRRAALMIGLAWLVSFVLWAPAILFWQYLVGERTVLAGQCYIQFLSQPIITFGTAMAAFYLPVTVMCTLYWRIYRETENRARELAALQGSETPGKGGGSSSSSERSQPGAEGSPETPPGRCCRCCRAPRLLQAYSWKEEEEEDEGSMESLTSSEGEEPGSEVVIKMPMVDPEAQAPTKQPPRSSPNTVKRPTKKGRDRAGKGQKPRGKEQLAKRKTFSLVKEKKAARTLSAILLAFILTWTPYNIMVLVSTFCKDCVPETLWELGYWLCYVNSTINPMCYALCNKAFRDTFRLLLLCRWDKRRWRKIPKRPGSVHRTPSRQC
UniProt P14416, whole entry, looked up: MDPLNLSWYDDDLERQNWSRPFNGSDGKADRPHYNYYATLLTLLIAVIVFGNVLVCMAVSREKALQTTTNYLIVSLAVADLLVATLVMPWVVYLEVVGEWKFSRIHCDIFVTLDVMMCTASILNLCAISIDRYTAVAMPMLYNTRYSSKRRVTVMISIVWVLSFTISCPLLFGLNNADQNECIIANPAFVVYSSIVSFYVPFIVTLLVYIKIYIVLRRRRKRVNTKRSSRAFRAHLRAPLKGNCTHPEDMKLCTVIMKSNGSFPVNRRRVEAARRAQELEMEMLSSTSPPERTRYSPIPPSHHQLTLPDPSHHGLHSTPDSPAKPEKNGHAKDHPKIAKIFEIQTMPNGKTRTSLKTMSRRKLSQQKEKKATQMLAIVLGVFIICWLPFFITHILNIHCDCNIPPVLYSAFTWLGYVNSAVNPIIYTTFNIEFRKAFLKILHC

Tests used:
[1] = biological target: 5-hydroxytryptamine receptor 2A (Homo sapiens) (UniProt P28223); assay: 5-hydroxytryptamine receptor 2A (HTR2A) small molecule antagonists, cell-based qHTS assay (AID 1963586); further: nearly all actives have a fitted effect of over 45% in size
In short: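 Antagonist-mode intracellular calcium assay: DOI (4 nM) added after 5 min compound pre-incubation at room temperature to dye-loaded HTR2A-CHO cells. Fluorescence followed for 3 min, sampled every second.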

[2] = biological target: Muscarinic acetylcholine receptor M1 (Homo sapiens) (UniProt P11229); assay: Cholinergic receptor muscarinic 1 (CHRM1) small molecule antagonists, cell-based qHTS assay (AID 1963588); further: nearly all actives have a fitted effect of over 40% in size
In short: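 CHRM1-CHO calcium-flux assay, antagonist mode. Cells were seeded 18 h, dye-loaded 1 h at 37 C and given compound for 5 min at RT, then acetylcholine was added at 50nM. FDSS fluorescence was read 3 min; 15 concentrations, three runs.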

[3] = biological target: Beta-2 adrenergic receptor (Homo sapiens) (UniProt P07550); assay: Adrenergic beta2 receptor (ADRB2) small molecule agonists, cell-based qHTS assay (AID 1963593); conditions: CHO-ADRB2 cells, cAMP HTRF, 30 min;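 on activation: CHO cells stably overexpressing human ADRB2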
In short: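 CHO cells stably over-expressing ADRB2 were plated overnight at 37C, then dosed with compounds plus a stimulation mix containing 100uM IBMX and 25uM Ro-20-1724 for 0.5hr at room temperature. cAMP was measured by HTRF competition, 1hr.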

[4] = biological target: Muscarinic acetylcholine receptor M1 (Homo sapiens) (UniProt P11229); assay: Cholinergic receptor muscarinic 1 (CHRM1) small molecule agonists, cell-based qHTS assay (AID 1963589); further: nearly all actives have a fitted effect of over 35% in size
In short: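 Human M1 in stable CHO line; 18 h plating, 1 h dye load 37 C; cpd added (agonist mode); Ca2+ fluorescence kinetic read, 1 s intervals; 15 conc, 3 runs.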

[5] = cAMP Responsive Elements (CRE) small molecule agonists, cell-based qHTS assay (AID 1963590); conditions: CRE-bla HEK293T, beta-lactamase FRET ratio, 3 h; activation: at 92.4 µM (top of the series) unless noted
In short: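 HEK 293T CRE-bla, 2,000 cells/well, 18 h preincubation 37 C/5% CO2; cpds (DMSO) pinned, 3 h; LiveBLAzer B/G FRET substrate, 2 h RT.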

[6] = cAMP Responsive Elements (CRE) small molecule antagonists, cell-based qHTS assay (AID 1963591; active means well fitted inhibition curve with a large enough effect in the signal ratio in the repeat runs, not every such curve was filed as active; inconclusive means weak or mixed curves, or effect the other way; the % refers to the signal ratio); conditions: CRE-bla HEK293T, beta-lactamase FRET ratio; activity change, negative = inhibition: at 92.4 µM (top of the series) unless noted
In short: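 Beta-lactamase reporter read by FRET substrate (LiveBLAzer B/G) after 2 h at room temperature. CRE-bla HEK293T cells had received compound plus 0.25 uM (final) NKH477 for 3 h at 37 °C.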

[7] = biological target: D(2) dopamine receptor (Homo sapiens) (UniProt P14416); assay: Dopamine D2 receptor (DRD2) small molecule agonists, cell-based qHTS assay (AID 1963594); conditions: HEK293-DRD2 cAMP HTRF, agonist mode, 30 min; activation: at 92.4 µM (top of the series) unless noted; further: nearly all actives have a fitted effect of over 35% in size
In short: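 cAMP accumulation in DRD2-HEK293 cells measured by HTRF after 1 h detection; compounds added 10 min before NKH477 (200nM […]) forskolin-analogue stimulation, 30 min at room temperature, with Ro20-1724 present at 0.1 mM final.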

[8] = biological target: D(2) dopamine receptor (Homo sapiens) (UniProt P14416); assay: Dopamine D2 receptor (DRD2) small molecule antagonists, cell-based qHTS assay (AID 1963595; active means well fitted inhibition curve with a large enough effect in the signal ratio in the repeat runs, with a control signal flat; inconclusive means weak or mixed curves, or effect the other way; the % refers to the signal ratio); conditions: HEK293-DRD2 cAMP HTRF antagonist mode; activity change, negative = inhibition: at 92.4 µM (top of the series) unless noted
In short: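 Antagonism was scored as restored cAMP in HEK293-DRD2 cells. These cells were stimulated with 200 nM NKH477 and 12 nM quinpirole for 30 min at room temperature, in the presence of 0.1 mM Ro20-1724.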

[9] = biological target: Beta-2 adrenergic receptor (Homo sapiens) (UniProt P07550); assay: Adrenergic beta2 receptor (ADRB2) small molecule antagonists, cell-based qHTS assay (AID 1963592); conditions: CHO-ADRB2 cells, isoproterenol-stimulated cAMP HTRF ratio, 0.5 h; activity change, negative = inhibition: at 92.4 µM (top of the series) unless noted; further: nearly all actives have a fitted effect of over 50% in size
In short: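 Cells (CHO, stable ADRB2 overexpression) incubated 18-20hr at 37C; compounds added from DMSO; agonist mix (1nM isoproterenol, 100uM IBMX, 25uM Ro-20-1724) added; 0.5hr RT; d2-cAMP and anti-cAMP-cryptate added; 1hr RT; 665/615 nm read.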

[10] = activation: at 92.4 µM (top of the series) unless noted
On the % scale 0 is the no-effect control and ±100 the full control effect; potency means the concentration at half of the fitted maximal effect.

**Q.** Which Potency [1] does the source give for `[O-][n+]1cccc(CO)c1` here?
**A.** The Potency was inconclusive: 0.729 µM [inhibitor, single point].

**Q.** And the Potency [2]?
**A.** The Potency was “inactive”.

**Q.** What about the Potency [3, 10] of the same compound?
**A.** Its Potency is inconclusive: 33.5 µM [inhibitor, single point].

**Q.** What does the source list for `O=C(c1ccc(O)c(O)c1)c1ccc(O)cc1O`?
**A.** Potency [1]: active: 47.1 µM; Potency [4]: inconclusive: 54.9 µM [rising, partial curve, poor fit]; Potency [5]: inconclusive: 5.44 µM [rising, full curve]; Potency [6]: inconclusive: 43.2 µM [rising, partial curve]; Potency [3, 10]: inconclusive: 68.5 µM; Potency [7]: inconclusive: 68.5 µM; activity change, negative = inhibition [8]: inconclusive: 2.87%

**Q.** Which Potency [1] does the source give for `CCN(CC)CCOC(=O)C1(c2ccccc2)CCCC1` here?
**A.** The Potency was inconclusive: 23.1 µM [inhibitor, single point].

**Q.** And the Potency [2]?
**A.** The Potency was inconclusive: 0.0033 µM [inhibitor, full curve].

**Q.** And the Potency [6]?
**A.** The Potency was “inactive”.

**Q.** And the Potency [3, 10]?
**A.** The Potency was “inactive”.

**Q.** Which Potency [1] does the source give for `C=C(C)C1CC=C(C)C(OC(C)=O)C1` (stereo not given) here?
**A.** The Potency was active: 3.75 µM.

**Q.** What about the Potency [2] of the same compound?
**A.** Its Potency is inconclusive: 0.0592 µM [inhibitor, full curve, poor fit].

**Q.** And the Potency [6]?
**A.** The Potency was “inactive”.

**Q.** And the Potency [9]?
**A.** Its Potency is “inactive”.

**Q.** What about the Potency [7] of the same compound?
**A.** Its Potency is inconclusive: 0.172 µM [rising, full curve, poor fit].

**Q.** And the Potency [8]?
**A.** Its Potency is “inactive”.

**Q.** What does the source list for `Cc1cc(=O)[nH]c(C(C)C)n1`?
**A.** Potency [1]: inconclusive: 47.2 µM [inhibitor, single point]; Potency [4]: inactive; Potency [3, 10]: inactive

**Q.** With `Cc1ccc(C(=O)C(=O)O)cc1C` as the compound, how does the Potency [1] read?
**A.** Its Potency is “inactive”.

**Q.** And the Potency [5]?
**A.** Its Potency is “inactive”.

**Q.** For `CN(C)C(=O)CNC(=O)Cc1ccccc1`, which Potency [1] is on record?
**A.** Its Potency is inconclusive: 0.0005 µM [inhibitor].

**Q.** What about the Potency [5] of the same compound?
**A.** The Potency was “inactive”.

**Q.** Which Potency [1] does the source give for `CC(C)(C)OC(=O)c1ccc(O)cc1` here?
**A.** Its Potency is “inactive”.

**Q.** What about the Potency [5] of the same compound?
**A.** The Potency was “inactive”.

**Q.** With `O=C(O)c1ccc2cc(C(=O)O)ccc2c1` as the compound, how does the Potency [1] read?
**A.** Its Potency is inconclusive: 0.0107 µM [inhibitor, full curve, poor fit].

**Q.** And the Potency [5]?
**A.** Its Potency is “inactive”.

**Q.** For `CC(C(O)c1ccc(O)cc1)N1CCC(Cc2ccccc2)CC1` (stereo not given), which Potency [1] is on record?
**A.** Its Potency is active: 16.3 µM.

**Q.** And the Potency [2]?
**A.** Its Potency is inconclusive: 1.63 µM [inhibitor, full curve].

**Q.** What about the Potency [9] of the same compound?
**A.** Its Potency is inconclusive: 33.5 µM [inhibitor, single point].

**Q.** And the Potency [3, 10]?
**A.** Its Potency is inconclusive: 8.41 µM [inhibitor, partial curve, poor fit].

**Q.** And the Potency [7]?
**A.** Its Potency is inconclusive: 13.3 µM [rising, partial curve, poor fit].

**Q.** For `O=C1c2ccccc2S(=O)(=O)N1CCCCN1CCN(c2ncccn2)CC1`, which Potency [1] is on record?
**A.** The Potency was inconclusive: 0.41 µM [inhibitor, full curve, poor fit].

**Q.** What about the Potency [2] of the same compound?
**A.** The Potency was “inactive”.

**Q.** What about the Potency [9] of the same compound?
**A.** Its Potency is “inactive”.

**Q.** And the Potency [3, 10]?
**A.** The Potency was “inactive”.

**Q.** And the Potency [7]?
**A.** Its Potency is active: 2.76 µM.

**Q.** With `Nc1ccc(C(=O)Oc2ccccc2)c(O)c1` as the compound, how does the Potency [1] read?
**A.** The Potency was “inactive”.

**Q.** And the Potency [2]?
**A.** The Potency was inconclusive: 14.5 µM [inhibitor, partial curve, poor fit].

**Q.** And the Potency [5]?
**A.** The Potency was “inactive”.

**Q.** What about the activity change, negative = inhibition [9] of the same compound?
**A.** The activity change, negative = inhibition was inconclusive: -32.3% [at 42.5 µM].

**Q.** And the activation [3, 10]?
**A.** The activation was inconclusive: -47% [at 42.5 µM].

**Q.** What does the source list for `NS(=O)(=O)c1ccccc1Cl`?
**A.** Potency [1]: inactive; Potency [5]: inactive

**Q.** Which Potency [1] does the source give for `CC(C)[N+](C)(CCOC(=O)C1c2ccccc2Oc2ccccc21)C(C)C` here?
**A.** Its Potency is “inactive”.

**Q.** What about the Potency [2] of the same compound?
**A.** The Potency was inconclusive: 0.0015 µM [inhibitor].

**Q.** What about the Potency [5] of the same compound?
**A.** The Potency was “inactive”.

**Q.** What about the Potency [6] of the same compound?
**A.** Its Potency is “inactive”.

**Q.** And the activation [3, 10]?
**A.** The activation was inconclusive: 19.6%.

**Q.** And the activation ([3]; at 42.5 µM (top of the series))?
**A.** The activation was inactive: 5.1%.

**Q.** Which results are given for `CC[N+](CC)(CC)CCOC(=O)C(C1CCCC1)C1CCCC1`?
**A.** Potency [1]: inactive; activation [5]: inconclusive: 2.42% [at 42.5 µM]; activity change, negative = inhibition [6]: inconclusive: 15.7% [at 42.4 µM]

**Q.** With `c1ccc(CNCc2ccccc2)cc1` as the compound, how does the Potency [1] read?
**A.** The Potency was active: 8.4 µM.

**Q.** And the Potency [5]?
**A.** Its Potency is “inactive”.

**Q.** What does the source list for `C/C=C1\C(=O)C[C@H]2[C@@H]3CCC4=CC(=O)CC[C@]4(C)[C@H]3CC[C@]12C`?
**A.** Potency [1]: inconclusive: 0.0029 µM [inhibitor, full curve, poor fit]; Potency [2]: inactive; Potency [5]: inconclusive: 13.4 µM [fluorescent, partial curve, poor fit]; Potency [6]: inconclusive: 10.7 µM [activator]; Potency [3, 10]: inconclusive: 6.72 µM [inhibitor, full curve]

**Q.** Which Potency [1] does the source give for `Oc1ccccc1C=NCc1ccccc1` here?
**A.** Its Potency is inconclusive: 20.5 µM [inhibitor, single point].

**Q.** What about the Potency [2] of the same compound?
**A.** The Potency was “inactive”.

**Q.** With `Cc1nc2n(c(=O)c1CCN1CCC(c3noc4cc(F)ccc34)CC1)CCC[C@H]2O` as the compound, how does the Potency [1] read?
**A.** Its Potency is inconclusive: 11.3 µM [inhibitor, partial curve, poor fit].

**Q.** What about the Potency [2] of the same compound?
**A.** The Potency was active: 4.48 µM.

**Q.** What about the activation [3, 10] of the same compound?
**A.** The activation was inactive: -0.915% [at 19 µM].

**Q.** What about the Potency [8] of the same compound?
**A.** The Potency was active: 0.0326 µM.

**Q.** With `CCOC(=O)C(C)Oc1ccc(Oc2nc3ccc(Cl)cc3o2)cc1` (stereo not given) as the compound, how does the Potency [1] read?
**A.** The Potency was “inactive”.

**Q.** And the Potency [2]?
**A.** Its Potency is inconclusive: 16.8 µM [inhibitor, partial curve].

**Q.** What about the Potency [5] of the same compound?
**A.** The Potency was inconclusive: 15.4 µM [rising, full curve, poor fit].

**Q.** What about the Potency [3, 10] of the same compound?
**A.** The Potency was “inactive”.

**Q.** And the Potency [7]?
**A.** The Potency was “inactive”.
